Counter-ions that a name gives are not always drawn. The list shows a part of the results. Hit calls seldom repeat between salt and free forms of one compound.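 Kinases, fused to nanoluciferase, were expressed in K562 cells; luminescence was measured every 4 h from 2 to 18 h as percent of control (DMSO = 100%, positive control = 0%). A time point is decreased if signal falls significantly (2 sigma). Hits were called by the authors by a rule that is not shown; the count of time points alone does not decide it.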
Legend:
Test in all cases: number of time points (of 5) at which kinase-Nluc abundance scored as decreased, DMSO-normalised (count); higher = more persistent destabilization
Conditions in all cases: K562; 2-18 h
CAMK2A = CAMK2A (UniProt Q9UQM7)
CAMK2G = CAMK2G (UniProt Q13555)
CDK10 = CDK10 (UniProt Q15131)
CDK2 = CDK2 (UniProt P24941)
CDK3 = CDK3 (UniProt Q00526)
CDK5 = CDK5 (UniProt Q00535)
CDK6 = CDK6 (UniProt Q00534)
CHEK2 = CHEK2 (UniProt O96017)
CSF1R = CSF1R (UniProt P07333)
CSK = CSK (UniProt P41240)

Protein sequences, listed by entry. Tags and fused reporters are not part of them. Lines headed by an entry give the natural chain unless they say otherwise; changes in a name come on top.
UniProt Q9UQM7, whole entry: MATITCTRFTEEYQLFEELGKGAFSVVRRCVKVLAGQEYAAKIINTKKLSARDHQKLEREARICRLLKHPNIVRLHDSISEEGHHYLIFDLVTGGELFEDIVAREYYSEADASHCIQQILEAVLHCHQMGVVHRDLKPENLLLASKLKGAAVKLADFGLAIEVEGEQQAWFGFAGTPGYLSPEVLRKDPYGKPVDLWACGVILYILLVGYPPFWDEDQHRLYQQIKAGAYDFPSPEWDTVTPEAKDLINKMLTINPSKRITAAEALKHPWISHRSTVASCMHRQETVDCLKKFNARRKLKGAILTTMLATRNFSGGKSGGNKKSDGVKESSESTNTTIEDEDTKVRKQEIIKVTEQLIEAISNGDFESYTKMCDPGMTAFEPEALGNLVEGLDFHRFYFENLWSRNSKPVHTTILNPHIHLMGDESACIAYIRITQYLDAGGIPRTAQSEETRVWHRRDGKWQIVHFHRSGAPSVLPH
UniProt Q13555: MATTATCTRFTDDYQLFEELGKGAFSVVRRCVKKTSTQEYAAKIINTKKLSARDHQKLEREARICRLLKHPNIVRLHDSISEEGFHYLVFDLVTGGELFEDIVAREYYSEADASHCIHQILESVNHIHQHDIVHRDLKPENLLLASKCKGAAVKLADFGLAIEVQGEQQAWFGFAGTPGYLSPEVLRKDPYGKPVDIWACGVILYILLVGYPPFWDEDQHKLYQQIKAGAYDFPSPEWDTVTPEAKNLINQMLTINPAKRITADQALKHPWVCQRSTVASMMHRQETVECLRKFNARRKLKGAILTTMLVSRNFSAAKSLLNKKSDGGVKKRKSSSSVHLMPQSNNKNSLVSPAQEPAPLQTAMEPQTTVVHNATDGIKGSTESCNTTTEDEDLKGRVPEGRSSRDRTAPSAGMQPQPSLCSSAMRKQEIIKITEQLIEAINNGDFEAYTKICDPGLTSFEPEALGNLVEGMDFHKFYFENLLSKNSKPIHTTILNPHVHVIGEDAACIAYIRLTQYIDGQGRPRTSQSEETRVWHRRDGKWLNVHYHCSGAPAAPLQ
UniProt Q15131: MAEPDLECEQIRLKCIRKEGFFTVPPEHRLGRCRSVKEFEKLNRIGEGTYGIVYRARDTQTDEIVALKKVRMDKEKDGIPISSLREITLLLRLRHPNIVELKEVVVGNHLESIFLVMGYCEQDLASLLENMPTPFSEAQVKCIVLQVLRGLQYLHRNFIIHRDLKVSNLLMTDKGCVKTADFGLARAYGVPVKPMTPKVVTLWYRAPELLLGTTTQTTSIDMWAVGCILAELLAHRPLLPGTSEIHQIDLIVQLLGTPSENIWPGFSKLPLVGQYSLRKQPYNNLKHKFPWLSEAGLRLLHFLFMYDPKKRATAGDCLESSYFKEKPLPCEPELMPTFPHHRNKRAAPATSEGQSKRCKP
UniProt Q00526: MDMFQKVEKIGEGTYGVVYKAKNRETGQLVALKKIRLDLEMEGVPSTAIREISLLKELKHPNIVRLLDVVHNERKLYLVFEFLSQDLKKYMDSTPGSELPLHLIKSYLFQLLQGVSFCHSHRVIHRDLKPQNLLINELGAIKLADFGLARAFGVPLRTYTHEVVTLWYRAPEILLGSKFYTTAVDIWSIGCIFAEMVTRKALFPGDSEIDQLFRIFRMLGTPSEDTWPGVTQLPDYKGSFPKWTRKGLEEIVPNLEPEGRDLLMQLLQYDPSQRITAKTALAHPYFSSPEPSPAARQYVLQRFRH
UniProt Q00535, whole entry, looked up: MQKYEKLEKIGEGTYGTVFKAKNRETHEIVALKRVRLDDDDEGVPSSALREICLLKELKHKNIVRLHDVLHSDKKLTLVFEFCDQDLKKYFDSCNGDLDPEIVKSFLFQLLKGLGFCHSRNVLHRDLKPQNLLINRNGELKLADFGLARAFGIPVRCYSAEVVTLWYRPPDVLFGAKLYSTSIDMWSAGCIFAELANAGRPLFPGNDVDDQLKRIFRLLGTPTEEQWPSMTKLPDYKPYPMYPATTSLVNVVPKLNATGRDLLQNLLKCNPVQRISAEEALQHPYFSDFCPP
UniProt Q00534, whole entry: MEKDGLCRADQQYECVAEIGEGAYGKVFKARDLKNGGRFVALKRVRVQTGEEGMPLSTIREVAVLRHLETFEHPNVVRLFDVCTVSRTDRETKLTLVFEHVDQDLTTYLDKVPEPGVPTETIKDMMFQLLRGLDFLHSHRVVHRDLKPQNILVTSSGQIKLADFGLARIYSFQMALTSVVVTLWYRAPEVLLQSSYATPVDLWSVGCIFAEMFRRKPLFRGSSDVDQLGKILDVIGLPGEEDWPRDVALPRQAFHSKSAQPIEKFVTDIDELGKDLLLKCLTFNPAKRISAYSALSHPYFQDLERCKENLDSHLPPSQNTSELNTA
UniProt O96017, whole entry: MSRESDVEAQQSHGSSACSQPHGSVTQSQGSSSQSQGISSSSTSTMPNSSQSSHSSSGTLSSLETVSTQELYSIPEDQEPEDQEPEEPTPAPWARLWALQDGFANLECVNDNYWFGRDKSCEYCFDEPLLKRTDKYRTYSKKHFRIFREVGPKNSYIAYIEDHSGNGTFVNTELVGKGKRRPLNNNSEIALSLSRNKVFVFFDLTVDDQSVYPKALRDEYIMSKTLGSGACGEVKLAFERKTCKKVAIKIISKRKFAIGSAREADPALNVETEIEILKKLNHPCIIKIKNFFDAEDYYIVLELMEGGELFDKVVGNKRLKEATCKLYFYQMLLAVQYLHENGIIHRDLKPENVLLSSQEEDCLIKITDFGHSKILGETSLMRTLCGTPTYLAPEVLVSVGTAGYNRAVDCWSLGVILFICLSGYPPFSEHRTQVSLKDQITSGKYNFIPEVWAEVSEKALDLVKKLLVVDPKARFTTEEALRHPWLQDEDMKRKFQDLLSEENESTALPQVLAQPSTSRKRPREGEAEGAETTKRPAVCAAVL
UniProt P07333, whole entry: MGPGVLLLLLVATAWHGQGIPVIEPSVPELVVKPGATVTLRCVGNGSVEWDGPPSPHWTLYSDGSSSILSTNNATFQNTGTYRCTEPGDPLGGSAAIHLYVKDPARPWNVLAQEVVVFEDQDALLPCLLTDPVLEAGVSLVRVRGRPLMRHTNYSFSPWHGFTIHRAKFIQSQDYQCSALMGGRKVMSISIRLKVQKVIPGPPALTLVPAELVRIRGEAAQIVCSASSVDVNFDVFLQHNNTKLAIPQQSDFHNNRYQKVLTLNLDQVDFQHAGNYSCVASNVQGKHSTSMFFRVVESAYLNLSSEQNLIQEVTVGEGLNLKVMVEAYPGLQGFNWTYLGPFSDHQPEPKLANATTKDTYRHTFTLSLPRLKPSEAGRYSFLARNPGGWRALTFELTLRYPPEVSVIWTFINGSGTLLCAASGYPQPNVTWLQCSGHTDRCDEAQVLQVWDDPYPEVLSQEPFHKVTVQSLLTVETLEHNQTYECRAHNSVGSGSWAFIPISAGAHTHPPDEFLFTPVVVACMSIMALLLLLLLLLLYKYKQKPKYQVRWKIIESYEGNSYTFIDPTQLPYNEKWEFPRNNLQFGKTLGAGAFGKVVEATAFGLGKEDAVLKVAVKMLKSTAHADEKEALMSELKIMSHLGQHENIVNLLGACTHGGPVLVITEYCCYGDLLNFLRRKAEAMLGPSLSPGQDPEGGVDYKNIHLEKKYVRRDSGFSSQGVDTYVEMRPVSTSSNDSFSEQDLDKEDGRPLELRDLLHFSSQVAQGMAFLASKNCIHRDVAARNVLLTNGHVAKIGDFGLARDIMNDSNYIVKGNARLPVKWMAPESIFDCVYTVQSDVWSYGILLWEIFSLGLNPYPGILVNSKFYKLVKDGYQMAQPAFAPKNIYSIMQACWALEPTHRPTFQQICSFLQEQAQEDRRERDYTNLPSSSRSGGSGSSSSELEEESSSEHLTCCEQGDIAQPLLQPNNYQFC
UniProt P41240: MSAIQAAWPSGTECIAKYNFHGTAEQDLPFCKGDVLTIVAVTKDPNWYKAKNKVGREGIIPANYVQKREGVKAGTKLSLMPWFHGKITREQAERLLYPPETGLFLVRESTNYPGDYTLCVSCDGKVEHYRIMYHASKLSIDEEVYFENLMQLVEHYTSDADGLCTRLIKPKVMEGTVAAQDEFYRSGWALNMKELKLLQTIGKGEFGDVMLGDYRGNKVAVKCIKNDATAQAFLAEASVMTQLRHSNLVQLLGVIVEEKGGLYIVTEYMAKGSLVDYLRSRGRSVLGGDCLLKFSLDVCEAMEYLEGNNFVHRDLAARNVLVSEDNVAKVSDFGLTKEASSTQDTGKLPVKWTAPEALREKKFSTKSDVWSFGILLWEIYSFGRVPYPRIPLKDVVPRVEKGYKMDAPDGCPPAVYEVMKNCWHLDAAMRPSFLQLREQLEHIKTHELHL

Measured: number of time points

Cc1cccc(-c2[nH]ncc2-c2ccnc3ccccc23)n1 (10 µM)
0: all assays above

Cc1nc[nH]c1CN1CCN(C(=O)N[C@@H](CC(C)C)C(=O)O)[C@@H](Cc2ccccc2)C1=O (10 µM)
0: all assays above

Cc1cnc(NC(=O)c2cc(Oc3cnc(C(=O)N(C)C)nc3)c3cc(C)oc3c2)cn1 (10 µM)
0: all assays above

O=c1[nH]ccc2nc(-c3ccc(CN4CCC(c5nc(-c6ccccn6)n[nH]5)CC4)cc3)c(-c3ccccc3)cc12 (10 µM)
0: all assays above

Cc1cc(C)cc(NC(N)=Nc2ccccc2C(F)(F)F)c1 (10 µM)
0: all assays above

CC(C)(C)Cc1[nH]nc2c1[C@@](C)(c1ccccc1)C1=C(CC(C)(C)CC1=O)N2 (10 µM)
0: all assays above

Cn1c(=O)c2c(nc(S(C)(=O)=O)n2C)n(CC#Cc2cccc(O)c2)c1=O (2.5 µM)
1: CSF1R
0: all other assays above

O=C1OC(/C=C/c2ccccc2)=NC/1=C\c1cccnc1 (10 µM)
0: all assays above

C=CC(=O)N1CCC[C@@H](n2nc(-c3ccc(Oc4ccccc4)cc3)c3c(N)n[nH]c(=O)c32)C1 [BTK inhibitor 17] (10 µM)
0: all assays above

O=c1cc(N2CCOCC2)oc2c(-c3ccc4c(c3)OCCO4)csc12 (2.5 µM)
0: all assays above

N#Cc1ccc(-c2cnc3ccc(-c4ccc(C(=O)N5CCOCC5)cc4)cn23)cc1 (10 µM)
0: all assays above

CC(Cc1ccc(O)c(O)c1)C(C)Cc1ccc(O)c(O)c1 (stereo not given) [Nordihydroguaiaretic acid] (2.5 µM)
0: all assays above

CC(Sc1nc2c(cnn2-c2cccc(Cl)c2)c(=O)[nH]1)C(N)=O (stereo not given) (10 µM)
0: all assays above

Cc1cc(O)c2c(c1)C(=O)c1cccc(O)c1C2=O [Chrysophanol] (2 µM)
0: all assays above

CC1=C(C(=O)Nc2cc3cn[nH]c3cc2F)C(c2ccc(C(F)(F)F)cc2)CC(=O)N1 (stereo not given) (10 µM)
0: all assays above

COc1cc2ncnc(Nc3cccc(I)c3)c2cc1OC (2.5 µM)
0: all assays above

COc1cc2cc(Oc3ccc4ccc(=O)oc4c3)c(=O)oc2cc1O [Daphnoretin] (10 µM)
0: all assays above

Cc1cc(Nc2cc(N)ncn2)c(=O)n2c1C(=O)NC21CCCCC1 [Tomivosertib] (10 µM)
0: all assays above

CC(C)[C@H](CO)Nc1nc(Nc2cccc(Cl)c2)c2ncn(C(C)C)c2n1 [Purvalanol A] (10 µM)
1: CDK6
0: all other assays above

Cn1cc(-c2cc(Oc3cc(F)c(NC(=O)C4(C(=O)Nc5ccccc5)CC4)cc3F)ccn2)cn1 (2.5 µM)
0: all assays above

C=CC(=O)Nc1cccc(Oc2nc(Nc3ccc(N4CCN(C)CC4)c(F)c3)nc3[nH]ccc23)c1 [Avitinib (maleate)] (2.5 µM)
0: all assays above

COc1cc2nccc(Oc3ccc(NC(=O)c4cn(C(C)C)c(=O)n(-c5ccc(F)cc5)c4=O)cc3F)c2cc1OC (0.5 µM)
1: CHEK2 | CSF1R
0: all other assays above

Cn1c2cc([S+](C)[O-])sc2c2cnn(Cc3cccc(N)c3)c(=O)c21 (stereo not given) (2.5 µM)
0: all assays above

Cc1ccc(NC(=O)Nc2cc(C(F)(F)F)ccc2F)cc1Nc1ccc2c(c1)NC(=O)/C2=C\c1ccc[nH]1 (2.5 µM)
1: CSF1R
0: all other assays above

COc1cc(-c2cc(-c3ccc(N4CCNCC4)cc3)cnc2C)cc(OC)c1OC (10 µM)
0: all assays above

Cc1cc([C@@H](C)Nc2ccccc2C(=O)O)c2nc(N3CCOCC3)cc(=O)n2c1 (10 µM)
0: all assays above

Structures shown so far that contain a carbonyl joined to an NH by a bond outside any ring:
Cc1nc[nH]c1CN1CCN(C(=O)N[C@@H](CC(C)C)C(=O)O)[C@@H](Cc2ccccc2)C1=O (10 µM)
0: all assays above

Cc1cnc(NC(=O)c2cc(Oc3cnc(C(=O)N(C)C)nc3)c3cc(C)oc3c2)cn1 (10 µM)
0: all assays above

CC(Sc1nc2c(cnn2-c2cccc(Cl)c2)c(=O)[nH]1)C(N)=O (stereo not given) (10 µM)
0: all assays above

CC1=C(C(=O)Nc2cc3cn[nH]c3cc2F)C(c2ccc(C(F)(F)F)cc2)CC(=O)N1 (stereo not given) (10 µM)
0: all assays above

Cn1cc(-c2cc(Oc3cc(F)c(NC(=O)C4(C(=O)Nc5ccccc5)CC4)cc3F)ccn2)cn1 (2.5 µM)
0: all assays above

C=CC(=O)Nc1cccc(Oc2nc(Nc3ccc(N4CCN(C)CC4)c(F)c3)nc3[nH]ccc23)c1 [Avitinib (maleate)] (2.5 µM)
0: all assays above

COc1cc2nccc(Oc3ccc(NC(=O)c4cn(C(C)C)c(=O)n(-c5ccc(F)cc5)c4=O)cc3F)c2cc1OC (0.5 µM)
1: CHEK2 | CSF1R
0: all other assays above

Cc1ccc(NC(=O)Nc2cc(C(F)(F)F)ccc2F)cc1Nc1ccc2c(c1)NC(=O)/C2=C\c1ccc[nH]1 (2.5 µM)
1: CSF1R
0: all other assays above

Remaining list, next part:

O=C(c1cccc(Cl)c1F)N1CCN(Cc2cccc(Nc3nccs3)n2)CC1 (2.5 µM)
0: all assays above

CCN1CCN(Cc2cnc(Nc3cc(-c4cc(F)c5nc(C)n(C(C)C)c5c4)c(F)cn3)nc2)CC1 (10 µM)
0: all assays above

COc1ccc(S(=O)(=O)Nc2cc(-c3c(O)ccc4ccccc34)c(O)c3ccccc23)cc1 (10 µM)
0: all assays above

CC(C)=CCC/C(C)=C/CC/C(C)=C/C=C/C(C)=C/C(=O)O [Peretinoin] (10 µM)
0: all assays above

COC(=O)[C@H](CCSC)NC(=O)c1ccc(NC[C@@H](N)CS)cc1-c1ccccc1 [FTI-277 (hydrochloride)] (10 µM)
0: all assays above

CCN(CC)CCCC(C)Nc1nc(C)cc(Nc2ccc3nc(C)cc(N)c3c2)n1 (stereo not given) (10 µM)
0: all assays above

COc1ccc(-c2cc(=O)c3c(OC)cc(OC)c(OC)c3o2)cc1 [6-Demethoxytangeretin] (10 µM)
0: all assays above

Cc1c(C)c(NCC(=O)N(C)C2CCN(Cc3ccc(C(N)=O)cc3)CC2)c(C)c(C)c1N (10 µM)
0: all assays above

Cc1cc(C(=O)NOCCO)c(Nc2ccc(I)cc2F)n(C)c1=O (10 µM)
2: CDK2
0: all other assays above

Cc1ccc(-n2nc(C(C)(C)C)cc2NC(=O)Nc2ccc(OCCN3CCOCC3)cc2)cc1 (10 µM)
0: all assays above

CC(O)(C#Cc1ccc2c(c1)N(c1nc(N)ncc1Cl)CC2)c1nccs1 (stereo not given) (2.5 µM)
0: all assays above

Clc1ccc(C(c2ccc(Cl)cc2)[n+]2ccn(CC(OCc3ccc(Cl)cc3Cl)c3ccc(Cl)cc3Cl)c2)cc1 (stereo not given) [Calmidazolium chloride] (2.5 µM)
2: CDK10
0: all other assays above

O=C(Nc1cccc(-c2nc(-c3ccc(NC(=O)c4cccnc4)cc3Cl)no2)c1)Nc1ccc(NC(=O)C2CC2)c(C(F)(F)F)c1 (2.5 µM)
0: all assays above

COc1cc(F)ccc1-c1ncnc(Nc2cccc(C[S@](C)(=N)=O)c2)n1 [Atuveciclib] (2.5 µM)
2: CHEK2
1: CAMK2A
0: all other assays above

Cc1c(Cl)cccc1S(=O)(=O)Nc1nc(NCCc2ccccc2)nc2c1CN(Cc1ccccc1)CC2 (2.5 µM)
4: CDK6
0: all other assays above

NCCOc1ccc(Cl)cc1C(=O)Nc1ccc([N+](=O)[O-])cc1Cl [HJC0152 hydrochloride] (2 µM)
0: all assays above

CN1CCC(CNc2ccc3ncc(-c4cccc(OC(F)(F)F)c4)n3n2)CC1 (2.5 µM)
0: all assays above

CNC(=O)CNc1cnc2ccc(-c3ccc(OC)c(OC)c3)cc2n1 (10 µM)
0: all assays above

CCCn1/c(=N/C(=O)c2cccc(C(N)=O)c2)[nH]c2ccccc21 [Takinib] (10 µM)
0: all assays above

Cc1cccc(COc2cccc(/C=C3\C(=O)NN(c4ccccc4)C3=O)c2)c1 (10 µM)
0: all assays above

CC(C)=CC[C@@H](O)C1=CC(=O)c2c(O)ccc(O)c2C1=O [Shikonin] (10 µM)
0: all assays above

CCN(CC)CCOc1ccc(Nc2nc(-c3ccccc3NC(=O)CCN3CCN(C)CC3)nc3ccccc23)cc1 (2.5 µM)
0: all assays above

COc1cc(-c2oc3cc(O)cc(O)c3c(=O)c2O)ccc1O [Isorhamnetin] (10 µM)
0: all assays above

CNC(=O)c1ccc2c(c1)ncn2-c1ccc(CC(=O)OC(C)(C)C)cc1 (10 µM)
0: all assays above

C[C@H]1O[C@@H](O[C@H]2CC[C@@]3(C)[C@@H](CC[C@]4(C)[C@@H]3C=C[C@]35OC[C@@]6(CCC(C)(C)C[C@H]63)[C@H](O)C[C@]54C)[C@]2(C)CO)[C@H](O)[C@@H](O[C@@H]2O[C@H](CO)[C@@H](O)[C@H](O)[C@H]2O)[C@H]1O [Saikosaponin D] (2.5 µM)
4: CAMK2G | CHEK2
0: all other assays above

COc1cc(N2CCOCC2)ccc1Nc1ncc(F)c(Nc2ccccc2NS(C)(=O)=O)n1 (10 µM)
0: all assays above

NCC1CCC(CNc2nc(NCc3ccccc3OC(F)(F)F)ncc2[N+](=O)[O-])CC1 (stereo not given) [PKC-theta inhibitor] (10 µM)
4: CHEK2
3: CSF1R
0: all other assays above

O=C(Nc1cccnc1)c1cc(-c2ccnc(F)c2)ccc1OCc1ccccc1 (10 µM)
0: all assays above

CC1CN(CC2CCN(Cc3ccccc3)CC2)C(=O)N(c2cccc(C(=N)N)c2)C1 (stereo not given) (10 µM)
0: all assays above

O=c1c2c([nH]n1-c1nc3ccccc3s1)CCCC2 (10 µM)
0: all assays above

A draw from above in order of molar mass, ascending.
O=C1OC(/C=C/c2ccccc2)=NC/1=C\c1cccnc1 (10 µM)
0: all assays above

O=C(Nc1cccc(-c2nc(-c3ccc(NC(=O)c4cccnc4)cc3Cl)no2)c1)Nc1ccc(NC(=O)C2CC2)c(C(F)(F)F)c1 (2.5 µM)
0: all assays above

C[C@H]1O[C@@H](O[C@H]2CC[C@@]3(C)[C@@H](CC[C@]4(C)[C@@H]3C=C[C@]35OC[C@@]6(CCC(C)(C)C[C@H]63)[C@H](O)C[C@]54C)[C@]2(C)CO)[C@H](O)[C@@H](O[C@@H]2O[C@H](CO)[C@@H](O)[C@H](O)[C@H]2O)[C@H]1O [Saikosaponin D] (2.5 µM)
4: CAMK2G | CHEK2
0: all other assays above

Additional records follow:

O=C(ON=C1c2ccccc2-c2nc3ccccc3nc21)c1ccco1 (2.5 µM)
0: all assays above

O=Nc1c(-c2c(O)[nH]c3cc(Br)ccc23)[nH]c2ccccc12 [GSK 3 Inhibitor IX] (2.5 µM)
0: all assays above

Oc1c(F)cc(-c2cnccc2-c2ccc(N3CCOCC3)cc2)cc1F (10 µM)
0: all assays above

Cc1cc(Nc2cc(N3CCN(C)CC3)nc(Nc3ccc([N+](=O)[O-])cc3)n2)n[nH]1 (2.5 µM)
1: CHEK2
0: all other assays above

C=C1CCC[C@]2(C)C=C3OC(=O)C(C)=C3C[C@@H]12 [Atractylenolide I] (10 µM)
0: all assays above

Cc1ccc(C(=O)NC2CC2)cc1-n1ncc(C(=O)c2cccc(C#N)c2)c1N [Acumapimod] (10 µM)
0: all assays above

CC(C)n1c([C@H](C)Nc2ncnc(N)c2C#N)cc2cccc(-c3ccc(=O)n(C)c3)c2c1=O (10 µM)
0: all assays above

O=C(NCCN1CCOCC1)Nc1nc2ccc(Sc3nnc4ccc(-c5ccc(F)cc5)nn34)cc2s1 (10 µM)
0: all assays above

CCC(=O)Nc1cccc(Oc2nc(Nc3ccc(N4CCN(C)CC4)cc3OC)ncc2Cl)c1 (10 µM)
0: all assays above

CO[C@H]1C[C@@H]2CC[C@@H](C)[C@@](O)(O2)C(=O)C(=O)N2CCCC[C@H]2C(=O)O[C@H]([C@H](C)C[C@@H]2CC[C@@H](OC(=O)C(C)(CO)CO)[C@H](OC)C2)CC(=O)[C@H](C)/C=C(\C)[C@@H](O)[C@@H](OC)C(=O)[C@H](C)C[C@H](C)/C=C/C=C/C=C/1C [Temsirolimus] (2.5 µM)
0: all assays above

C[C@@H](Nc1ncnc2[nH]c(-c3ccc(O)cc3)cc12)c1ccccc1 (2.5 µM)
0: all assays above

C=CC(=O)N1CC[C@@H](Oc2nc(Nc3ccc(N4CCC(N5CCN(C)CC5)CC4)cc3)c(C(N)=O)nc2CC)C1 [Naquotinib (mesylate)] (2.5 µM)
0: all assays above

CO[C@H]1CC[C@H](N2C(=O)CNc3ncc(-c4ccc(C(C)(C)O)nc4)nc32)CC1 (2.5 µM)
0: all assays above

O=c1cc(-c2ccccc2)oc2cc(O[C@@H]3O[C@H](CO[C@@H]4O[C@H](CO)[C@@H](O)[C@H](O)[C@H]4O)[C@@H](O)[C@H](O)[C@H]3O)c(O)c(O)c12 [Oroxin B] (10 µM)
0: all assays above

CO[C@H]1C[C@@H]2CC[C@@H](C)[C@@](O)(O2)C(=O)C(=O)N2CCCC[C@H]2C(=O)O[C@H]([C@H](C)C[C@@H]2CC[C@@H](OCCO)[C@H](OC)C2)CC(=O)[C@H](C)/C=C(\C)[C@@H](O)[C@@H](OC)C(=O)[C@H](C)C[C@H](C)/C=C/C=C/C=C/1C [Everolimus] (10 µM)
0: all assays above

COc1ccc2c3n(c(=NC(=O)c4cccnc4)nc2c1OC)CCN3 (2 µM)
0: all assays above

Source: the supplement of paper PMC12823440, “Inhibitors supercharge kinase turnover through native proteolytic circuits” (Nature, 2025)
